Results as given in US12318370B2, “Processes for preparing solid state forms” (Varda Space Industries, Inc., priority 2022, dated 2025).

Experiment: Solubility of ritonavir solid forms in 0.1 N HCl by UV/VIS, with XRPD of recovered solids
Format: physicochemical
Settings: ambient, UV/VIS at 247 nm, supernatant diluted 10-fold

Point of comparison: `CC(C)c1nc(CN(C)C(=O)N[C@H](C(=O)N[C@@H](Cc2ccccc2)C[C@H](O)[C@H](Cc2ccccc2)NC(=O)OCc2cncs2)C(C)C)cs1` (single isomer, unassigned) [Form I, 10-hydroxy-2-methyl-5-(1-methylethyl)-1-[2-(1-methylethyl)-4-thiazolyl]-3,6-dioxo-8,11-bis(phenylmethyl)-2,4,7,12-tetraazatridecan-13-oic acid, 5-thiazolylmethyl ester, [SS-(5R*,8R*,10R*,1R*)]], “Absorbance after 48 h” value 0.30. Against it:
- CC(C)c1nc(CN(C)C(=O)N[C@H](C(=O)N[C@@H](Cc2ccccc2)C[C@H](O)[C@H](Cc2ccccc2)NC(=O)OCc2cncs2)C(C)C)cs1 (single isomer, unassigned) [Amorphous, 10-hydroxy-2-methyl-5-(1-methylethyl)-1-[2-(1-methylethyl)-4-thiazolyl]-3,6-dioxo-8,11-bis(phenylmethyl)-2,4,7,12-tetraazatridecan-13-oic acid, 5-thiazolylmethyl ester, [SS-(5R*,8R*,10R*,1R*)]] — higher, 1.43
- CC(C)c1nc(CN(C)C(=O)N[C@H](C(=O)N[C@@H](Cc2ccccc2)C[C@H](O)[C@H](Cc2ccccc2)NC(=O)OCc2cncs2)C(C)C)cs1 (single isomer, unassigned) [Form II, 10-hydroxy-2-methyl-5-(1-methylethyl)-1-[2-(1-methylethyl)-4-thiazolyl]-3,6-dioxo-8,11-bis(phenylmethyl)-2,4,7,12-tetraazatridecan-13-oic acid, 5-thiazolylmethyl ester, [SS-(5R*,8R*,10R*,1R*)]] — lower, 0.12
- CC(C)c1nc(CN(C)C(=O)N[C@H](C(=O)N[C@@H](Cc2ccccc2)C[C@H](O)[C@H](Cc2ccccc2)NC(=O)OCc2cncs2)C(C)C)cs1 (single isomer, unassigned) [Form III, 10-hydroxy-2-methyl-5-(1-methylethyl)-1-[2-(1-methylethyl)-4-thiazolyl]-3,6-dioxo-8,11-bis(phenylmethyl)-2,4,7,12-tetraazatridecan-13-oic acid, 5-thiazolylmethyl ester, [SS-(5R*,8R*,10R*,1R*)]] — higher, 1.08
